Source: US20240026034A1
Results are given in words; binding and its absence hold for the method and conditions named. Some results given as binding are weak or reduced against the parent protein; the word gives no strength.

Key:
[1] = biological target: T1, QSOX1 (human) (UniProt O00391); experiment: antigen capture ELISA on human plasma, biotinylated 2F1 as detector
T1 sequence (looked up): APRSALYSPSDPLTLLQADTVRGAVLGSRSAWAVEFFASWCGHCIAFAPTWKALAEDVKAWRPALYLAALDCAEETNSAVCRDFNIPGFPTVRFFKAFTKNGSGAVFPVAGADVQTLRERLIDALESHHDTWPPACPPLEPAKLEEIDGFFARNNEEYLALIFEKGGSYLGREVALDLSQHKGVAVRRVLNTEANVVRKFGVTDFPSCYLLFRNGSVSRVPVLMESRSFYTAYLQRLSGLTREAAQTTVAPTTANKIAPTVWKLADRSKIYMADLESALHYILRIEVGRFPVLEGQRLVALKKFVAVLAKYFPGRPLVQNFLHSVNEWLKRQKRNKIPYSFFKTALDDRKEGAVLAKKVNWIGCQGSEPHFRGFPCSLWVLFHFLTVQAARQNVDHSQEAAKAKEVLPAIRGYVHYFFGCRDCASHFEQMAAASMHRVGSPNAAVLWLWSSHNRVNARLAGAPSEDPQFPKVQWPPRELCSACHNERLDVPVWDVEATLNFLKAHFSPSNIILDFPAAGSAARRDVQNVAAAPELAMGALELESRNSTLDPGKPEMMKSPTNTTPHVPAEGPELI

[2] = biological target: T1, QSOX1 (human); experiment: blot
[3] = biological target: T1, QSOX1 (human); experiment: blot binding assays on QSOX1 and its mutants

- binding [1]: binds
- binding [2]: binds
- binding [3]: binds
B1: 2F1 anti-QSOX1 monoclonal antibody (antibody, V domains shown)
VH: EVQLEESGPGLVAPSQSLSITCTVSGFSLTDYGVTWIRQPPGKGLEWLGVIWGDGSTYYNSALKSRLSISKDDSKSQVFLKMNSLQTDDTAMYYCAGALYDGYYGYWGQGTTLTVSS
VL: DIVLTQTHKFMSTSVGDRVSITCKASQDVSTAVAWYQQKPGQSPKLLIYSASYRYSGVPDRFTGSGSGTDFTFTISSVQAEDLAVYYCQQHYSTPLTFGAGTKLELK
